The source of these data is doi:10.1101/2024.09.04.610023 (bioRxiv, 2024).

By UniProt entry, the sequences of proteins in these tests, tags left out.
UniProt Q99MK2: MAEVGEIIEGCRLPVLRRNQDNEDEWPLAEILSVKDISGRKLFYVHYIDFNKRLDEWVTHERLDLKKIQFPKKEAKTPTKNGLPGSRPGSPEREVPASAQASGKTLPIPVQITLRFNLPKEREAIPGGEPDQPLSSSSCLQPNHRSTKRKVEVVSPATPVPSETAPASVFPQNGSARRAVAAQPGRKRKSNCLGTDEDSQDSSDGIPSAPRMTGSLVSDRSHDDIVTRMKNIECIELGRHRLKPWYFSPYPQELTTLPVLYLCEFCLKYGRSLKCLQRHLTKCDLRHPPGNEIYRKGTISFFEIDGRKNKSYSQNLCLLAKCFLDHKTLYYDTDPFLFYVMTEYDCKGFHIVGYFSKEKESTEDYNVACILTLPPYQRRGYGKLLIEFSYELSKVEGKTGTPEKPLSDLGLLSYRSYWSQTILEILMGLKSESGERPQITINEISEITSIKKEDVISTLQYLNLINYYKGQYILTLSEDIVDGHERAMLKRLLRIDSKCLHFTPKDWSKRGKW

Results are given in words; binding and its absence hold for the method and conditions named. In cells and extracts the contact can be indirect. Some entries that bind do so weakly or less than the wild type. Where a sequence is shown, tags or fusion partners need not be part of it.

The experiment concerns the target T1, Human recombinant GST-Arc (bait of the pull-down, on glutathione-Sepharose) (human) (UniProt Q7LC44).
T1 sequence: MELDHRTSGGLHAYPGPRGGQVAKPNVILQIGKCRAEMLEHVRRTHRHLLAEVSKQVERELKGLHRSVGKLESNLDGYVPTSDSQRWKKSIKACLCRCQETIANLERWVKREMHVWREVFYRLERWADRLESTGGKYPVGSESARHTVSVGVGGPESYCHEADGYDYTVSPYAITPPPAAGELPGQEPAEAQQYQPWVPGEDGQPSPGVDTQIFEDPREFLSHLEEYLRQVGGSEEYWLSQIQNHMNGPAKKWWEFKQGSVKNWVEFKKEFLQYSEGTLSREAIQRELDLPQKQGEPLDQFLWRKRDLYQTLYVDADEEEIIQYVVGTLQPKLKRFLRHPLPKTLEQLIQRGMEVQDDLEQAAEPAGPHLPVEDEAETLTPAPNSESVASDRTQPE
Put plainly: pull-down.

Take “Histone acetyl transferase TIP60, endogenous, rat dentate gyrus nucleosol (from UniProt Q99MK2 1-513)”: the binding result is “binds”.
